Source: the supplement of paper PMC10849652
This is one part of the list.

The chains behind the UniProt entries cited, without tags or fusion partners. Where a name states a change or a piece, a line headed by the entry shows the natural chain unless it says otherwise.
UniProt Q99943: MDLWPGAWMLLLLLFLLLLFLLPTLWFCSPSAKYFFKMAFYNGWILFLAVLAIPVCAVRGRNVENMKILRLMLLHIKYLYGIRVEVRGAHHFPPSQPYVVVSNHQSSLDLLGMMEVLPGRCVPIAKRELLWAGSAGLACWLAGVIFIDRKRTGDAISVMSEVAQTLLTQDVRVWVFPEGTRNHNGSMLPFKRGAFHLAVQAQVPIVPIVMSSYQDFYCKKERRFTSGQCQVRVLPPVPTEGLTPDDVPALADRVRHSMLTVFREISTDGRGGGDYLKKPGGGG
UniProt P54922: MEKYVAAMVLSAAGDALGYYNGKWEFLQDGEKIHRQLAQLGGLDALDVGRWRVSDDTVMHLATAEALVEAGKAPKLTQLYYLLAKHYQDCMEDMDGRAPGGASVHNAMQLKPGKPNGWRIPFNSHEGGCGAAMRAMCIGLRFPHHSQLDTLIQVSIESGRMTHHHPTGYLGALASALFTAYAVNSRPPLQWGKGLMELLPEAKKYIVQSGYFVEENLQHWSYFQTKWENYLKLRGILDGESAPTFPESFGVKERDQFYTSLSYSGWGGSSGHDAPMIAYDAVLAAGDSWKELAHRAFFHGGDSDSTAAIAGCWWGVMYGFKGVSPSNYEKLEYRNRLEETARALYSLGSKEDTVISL
UniProt Q562R1, whole entry, looked up: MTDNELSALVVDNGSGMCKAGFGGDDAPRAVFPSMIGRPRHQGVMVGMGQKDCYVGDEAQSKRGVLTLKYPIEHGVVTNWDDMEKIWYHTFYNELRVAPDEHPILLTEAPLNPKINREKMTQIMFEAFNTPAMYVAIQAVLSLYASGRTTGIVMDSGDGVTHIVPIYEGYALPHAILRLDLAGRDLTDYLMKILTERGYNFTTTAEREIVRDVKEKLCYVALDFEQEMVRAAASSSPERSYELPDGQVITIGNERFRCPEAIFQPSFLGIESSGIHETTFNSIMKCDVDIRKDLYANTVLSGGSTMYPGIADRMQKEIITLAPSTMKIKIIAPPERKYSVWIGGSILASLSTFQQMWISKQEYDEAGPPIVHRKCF
UniProt O43823: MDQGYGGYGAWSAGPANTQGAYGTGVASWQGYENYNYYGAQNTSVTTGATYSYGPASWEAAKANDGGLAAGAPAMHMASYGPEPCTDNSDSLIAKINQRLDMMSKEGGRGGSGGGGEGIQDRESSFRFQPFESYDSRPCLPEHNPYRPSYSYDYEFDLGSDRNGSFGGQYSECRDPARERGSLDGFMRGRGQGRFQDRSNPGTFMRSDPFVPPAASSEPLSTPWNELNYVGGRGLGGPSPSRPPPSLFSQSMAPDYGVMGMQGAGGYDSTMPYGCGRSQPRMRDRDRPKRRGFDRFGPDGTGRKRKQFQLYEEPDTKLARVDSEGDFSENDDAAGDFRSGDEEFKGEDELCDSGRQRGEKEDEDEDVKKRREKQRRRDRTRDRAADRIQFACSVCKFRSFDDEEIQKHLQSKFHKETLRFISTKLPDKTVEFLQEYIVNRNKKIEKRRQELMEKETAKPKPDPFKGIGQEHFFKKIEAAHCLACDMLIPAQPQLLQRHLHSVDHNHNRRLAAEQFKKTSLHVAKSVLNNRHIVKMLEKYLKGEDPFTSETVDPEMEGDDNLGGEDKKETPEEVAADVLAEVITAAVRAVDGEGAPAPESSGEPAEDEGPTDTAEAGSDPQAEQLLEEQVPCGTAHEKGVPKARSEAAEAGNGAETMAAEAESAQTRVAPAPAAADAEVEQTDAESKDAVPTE
UniProt P14621: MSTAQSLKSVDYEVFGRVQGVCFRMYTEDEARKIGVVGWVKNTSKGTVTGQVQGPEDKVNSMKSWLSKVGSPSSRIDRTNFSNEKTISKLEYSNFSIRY
UniProt Q8N302: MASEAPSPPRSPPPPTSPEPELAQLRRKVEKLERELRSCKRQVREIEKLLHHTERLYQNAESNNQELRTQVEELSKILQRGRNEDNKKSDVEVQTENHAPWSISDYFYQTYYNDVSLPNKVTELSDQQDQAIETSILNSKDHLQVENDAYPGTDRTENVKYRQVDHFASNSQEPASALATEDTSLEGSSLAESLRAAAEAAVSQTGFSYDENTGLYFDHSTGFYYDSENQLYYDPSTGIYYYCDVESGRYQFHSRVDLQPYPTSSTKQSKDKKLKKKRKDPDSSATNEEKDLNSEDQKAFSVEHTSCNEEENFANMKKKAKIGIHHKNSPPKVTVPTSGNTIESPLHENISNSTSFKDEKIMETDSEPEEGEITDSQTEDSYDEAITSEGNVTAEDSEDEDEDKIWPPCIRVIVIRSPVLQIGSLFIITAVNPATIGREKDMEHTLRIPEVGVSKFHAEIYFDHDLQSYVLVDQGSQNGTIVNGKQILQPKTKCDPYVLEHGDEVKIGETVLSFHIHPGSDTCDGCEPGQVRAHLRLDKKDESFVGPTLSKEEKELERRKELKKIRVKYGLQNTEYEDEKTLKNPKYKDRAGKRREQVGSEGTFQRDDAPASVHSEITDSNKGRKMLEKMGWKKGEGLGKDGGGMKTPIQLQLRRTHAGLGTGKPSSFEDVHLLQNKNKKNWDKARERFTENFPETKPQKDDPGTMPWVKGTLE
UniProt Q8WV93: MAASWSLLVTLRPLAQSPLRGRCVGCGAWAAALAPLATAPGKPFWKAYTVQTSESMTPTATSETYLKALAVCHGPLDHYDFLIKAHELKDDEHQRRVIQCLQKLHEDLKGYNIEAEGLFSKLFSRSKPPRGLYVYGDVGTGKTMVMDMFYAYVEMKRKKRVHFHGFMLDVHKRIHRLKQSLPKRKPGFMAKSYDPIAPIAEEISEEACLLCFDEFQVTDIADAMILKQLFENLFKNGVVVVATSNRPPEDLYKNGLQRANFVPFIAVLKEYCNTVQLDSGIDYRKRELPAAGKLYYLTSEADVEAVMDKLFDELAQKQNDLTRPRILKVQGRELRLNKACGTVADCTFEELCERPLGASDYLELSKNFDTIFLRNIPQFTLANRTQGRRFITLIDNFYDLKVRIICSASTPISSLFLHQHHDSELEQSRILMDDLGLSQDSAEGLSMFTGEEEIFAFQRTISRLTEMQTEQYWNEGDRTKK
UniProt Q9Y4W6: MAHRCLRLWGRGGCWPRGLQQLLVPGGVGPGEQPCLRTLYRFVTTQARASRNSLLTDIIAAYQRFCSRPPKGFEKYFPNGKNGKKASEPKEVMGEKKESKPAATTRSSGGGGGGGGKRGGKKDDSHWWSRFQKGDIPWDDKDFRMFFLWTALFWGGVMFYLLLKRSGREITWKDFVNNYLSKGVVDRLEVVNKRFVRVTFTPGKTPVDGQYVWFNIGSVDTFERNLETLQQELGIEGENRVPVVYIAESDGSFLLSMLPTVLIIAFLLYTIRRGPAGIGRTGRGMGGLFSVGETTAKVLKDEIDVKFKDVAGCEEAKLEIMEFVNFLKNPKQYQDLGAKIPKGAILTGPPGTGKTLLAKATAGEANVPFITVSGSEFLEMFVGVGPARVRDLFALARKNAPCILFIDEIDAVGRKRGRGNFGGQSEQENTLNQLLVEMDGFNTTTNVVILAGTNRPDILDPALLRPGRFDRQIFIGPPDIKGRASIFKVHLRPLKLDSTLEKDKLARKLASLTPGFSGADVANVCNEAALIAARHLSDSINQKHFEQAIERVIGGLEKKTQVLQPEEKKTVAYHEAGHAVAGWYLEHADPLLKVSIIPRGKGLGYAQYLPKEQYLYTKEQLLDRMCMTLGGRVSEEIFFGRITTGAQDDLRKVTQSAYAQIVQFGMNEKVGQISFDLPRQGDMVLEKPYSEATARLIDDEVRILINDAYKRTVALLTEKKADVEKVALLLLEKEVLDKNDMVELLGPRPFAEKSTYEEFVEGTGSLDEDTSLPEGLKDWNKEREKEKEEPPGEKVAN
UniProt Q53H80, whole entry, looked up: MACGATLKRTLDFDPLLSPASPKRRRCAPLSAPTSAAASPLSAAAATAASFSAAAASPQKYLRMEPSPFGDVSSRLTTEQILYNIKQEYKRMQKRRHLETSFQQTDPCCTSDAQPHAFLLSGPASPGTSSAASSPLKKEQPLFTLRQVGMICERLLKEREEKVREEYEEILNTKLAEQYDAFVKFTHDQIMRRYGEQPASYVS
UniProt Q9H9F9, whole entry, looked up: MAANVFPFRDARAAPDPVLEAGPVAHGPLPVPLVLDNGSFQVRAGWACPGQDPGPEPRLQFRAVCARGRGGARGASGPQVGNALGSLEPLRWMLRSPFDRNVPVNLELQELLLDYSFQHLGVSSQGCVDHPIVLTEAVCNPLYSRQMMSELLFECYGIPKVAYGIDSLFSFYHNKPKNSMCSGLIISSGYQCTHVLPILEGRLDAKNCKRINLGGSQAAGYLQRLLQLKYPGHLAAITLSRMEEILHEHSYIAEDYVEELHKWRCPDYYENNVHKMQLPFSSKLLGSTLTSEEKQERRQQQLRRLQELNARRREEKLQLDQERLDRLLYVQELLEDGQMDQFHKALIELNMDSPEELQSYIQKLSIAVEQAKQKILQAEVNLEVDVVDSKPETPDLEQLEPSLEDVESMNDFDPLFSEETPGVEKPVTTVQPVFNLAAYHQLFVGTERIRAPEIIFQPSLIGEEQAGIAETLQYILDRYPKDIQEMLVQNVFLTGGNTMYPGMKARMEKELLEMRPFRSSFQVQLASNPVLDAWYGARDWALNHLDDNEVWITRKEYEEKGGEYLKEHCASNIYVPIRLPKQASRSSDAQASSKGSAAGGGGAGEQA

Key:
Assay in all cases: log2 fold change, soluble protein after heating vs DMSO (PISA); higher = thermal stabilisation; K562 lysate, 10 uM; active = over 0.2 and 3.5 SD of the protein, either way, in both replicates (recomputed)
erlotinib = compound: C#Cc1cccc(Nc2ncnc3cc(OCCOC)c(OCCOC)cc23)c1 [erlotinib]
Outline: (§1)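 To prepare the extract, K562 pellets were dounce-homogenised in PBS pH 7.4 with 1 mM MgCl2, giving crude material at 1 mg/mL protein. This was treated with 10 μM compound for 30 min, then heated in aliquots for 3 min over 48°C-58°C before pooling and addition of NP-40 to 0.5% at 4°C. Centrifugation at 21,000xg for 90 min left soluble protein in the supernatant, which TMTpro 16plex LC-MS/MS quantified with equalised channel sums. Results are log-two fold changes in thermal stability compared with solvent controls, from duplicates.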

[1] = compound: C/C(=N\NC(=O)C1=CC(=CC=C1)S(=O)(=O)N2CCOCC2)/C3=C(C=CC(=C3)Cl)O
Outline: as §1

[2] = compound: C1=CC(=CC=C1C2=NC3=C(N2)C=C(C=C3)C(=O)N)OC4=CC=C(C=C4)Cl
Outline: as §1

[3] = compound: C1=CC2=C(C=CC(=C2)/C=C\3/C(=O)NC(=NCC4=CC=CS4)S3)N=C1
Outline: as §1

[4] = compound: C1=CC2=NC=CN=C2C=C1/C=C/3\C(=O)NC(=O)S3
Outline: as §1

[5] = compound: C1=CC=C(C=C1)C2=NC(=C(N2)C3=CC=NC=C3)C4=CC(=C(C=C4)Cl)O
Outline: as §1

[6] = compound: C1=CC=C2C(=C1)C3=NNC4=CC=CC(=C43)C2=O
Outline: as §1

[7] = compound: C1CCN(C1)C(=O)NC2=CC=CC(=C2)NC3=NC=C(C(=N3)NCCC4=CN=CN4)Br
Outline: as §1

[8] = compound: C1CN(CCC1(CC2=CC=C(C=C2)Cl)N)C3=NC=NC4=C3C=CN4
Outline: as §1

IRAK-1-4 Inhibitor I = compound: C1COCCN1CCN2C3=CC=CC=C3N=C2NC(=O)C4=CC(=CC=C4)[N+](=O)[O-] [IRAK-1-4 Inhibitor I]
Outline: as §1

ibrutinib = compound: C=CC(=O)N1CCC[C@@H](n2nc(-c3ccc(Oc4ccccc4)cc3)c3c(N)ncnc32)C1 [ibrutinib]
Outline: as §1

[9] = compound: CC(=O)c1cnc2ccc(-c3cc(Cl)c(O)c(Cl)c3)nc2c1N[C@H]1CC[C@H](CN(C)C)CC1
Outline: as §1

ralimetinib = compound: CC(C)(C)Cn1c(N)nc2ccc(-c3[nH]c(C(C)(C)C)nc3-c3ccc(F)cc3)nc21 [ralimetinib]
Outline: as §1

[10] = compound: CC(C)(O)CC(=O)NCCn1ccc2ncnc(Nc3ccc(Oc4cccc(C(F)(F)F)c4)c(Cl)c3)c21
Outline: as §1

[11] = compound: CC(C)C1=C2N=C(C=C(N2N=C1)NCC3=CC=CC=C3)NCCCCCCN
Outline: as §1

[12] = compound: CC1=C(C(CC(=O)N1)C2=CC=C(C=C2)C(F)(F)F)C(=O)NC3=C(C=C4C(=C3)C=NN4)F
Outline: as §1

[13] = compound: CC1=C(C2=C(C=C1)C(=O)C3=CC=CC=C3N2CCCN)C
Outline: as §1

[14] = compound: CC1=C(C=C(C=C1)NC(=O)C2=CC(=CC=C2)C(C)(C)C#N)NC3=CC4=C(C=C3)N=CN(C4=O)C
Outline: as §1

[15] = compound: CC1=C(C=C(C=C1)NC(=O)C2=CC(=CC=C2)N(C)C)NC(=O)C3=CC=C(C=C3)O
Outline: as §1

[16] = compound: CC1=CC=C(C=C1)SC2=C3C=C(SC3=CN=C2)C(=O)N
Outline: as §1

Measured: log2 fold change

AGPAT1 (UniProt Q99943)
inactive: erlotinib 0.012 | [1] 0.027 | [2] -0.145 | [3] 0.05 | [4] 0.028 | [5] -0.023 | [6] -0.01 | [7] -0.019 | [8] 0.01 | IRAK-1-4 Inhibitor I 0.036 | ibrutinib -0.121 | [9] -0.05 | ralimetinib 0.027 | [10] -0.051 | [11] -0.026 | [12] 0.06 | [13] 0.012 | [14] 0.02 | [15] 0.043 | [16] 0.042

ADPRH (UniProt P54922)
inactive: erlotinib 0.075 | [1] 0.175 | [2] 0.005 | [3] 0.192 | [4] 0.032 | [5] -0.073 | [6] 0.037 | [7] -0.086 | [8] -0.02 | IRAK-1-4 Inhibitor I -0.005 | ibrutinib 0.046 | [9] 0.01 | ralimetinib -0.001 | [10] 0 | [11] 0.016 | [12] 0.049 | [13] 0.005 | [14] -0.099 | [15] -0.017 | [16] -0.117

AHNAK (UniProt Q09666)
inactive: erlotinib -0.002 | [1] 0.045 | [2] 0.044 | [3] -0.009 | [4] -0.037 | [5] 0.019 | [6] 0.012 | [7] -0.003 | [8] -0.013 | IRAK-1-4 Inhibitor I 0.012 | ibrutinib -0.005 | [9] -0.023 | ralimetinib -0.007 | [10] 0.026 | [11] 0.024 | [12] -0.001 | [13] 0 | [14] 0.001 | [15] -0.004 | [16] -0.01

ACTBL2 (UniProt Q562R1)
inactive: erlotinib -0.037 | [1] -0.163 | [2] 0.02 | [3] 0.043 | [4] 0.118 | [5] 0.004 | [6] 0.024 | [7] 0.064 | [8] 0.109 | IRAK-1-4 Inhibitor I -0.006 | ibrutinib 0.001 | [9] -0.016 | ralimetinib 0.006 | [10] 0.082 | [11] -0.034 | [12] 0.086 | [13] 0.069 | [14] -0.043 | [15] 0.017 | [16] 0.123

AKAP8 (UniProt O43823)
inactive: erlotinib -0.015 | [1] 0.002 | [2] 0.038 | [3] -0.005 | [4] -0.04 | [5] 0.045 | [6] -0.047 | [7] 0.044 | [8] 0 | IRAK-1-4 Inhibitor I 0.089 | ibrutinib 0 | [9] -0.019 | ralimetinib -0.039 | [10] -0.084 | [11] -0.009 | [12] 0.076 | [13] -0.056 | [14] -0.158 | [15] 0.016 | [16] -0.03

ACYP2 (UniProt P14621)
inactive: erlotinib -0.057 | [1] 0.256 | [2] 0.007 | [3] -0.176 | [4] 0.002 | [5] -0.049 | [6] -0.185 | IRAK-1-4 Inhibitor I -0.011 | ibrutinib 0.086 | [9] 0.004 | ralimetinib 0.026 | [10] -0.018 | [11] 0.044 | [12] 0.047 | [14] -0.036 | [15] 0.025 | [16] 0.04

AGGF1 (UniProt Q8N302)
inactive: erlotinib -0.015 | [1] -0.056 | [2] 0.054 | [3] -0.19 | [4] -0.077 | [5] 0.018 | [6] 0.057 | [7] -0.038 | [8] -0.022 | IRAK-1-4 Inhibitor I 0.023 | ibrutinib 0.034 | [9] 0.077 | ralimetinib -0.014 | [10] -0.023 | [11] -0.017 | [12] -0.011 | [14] 0.034 | [15] -0.04 | [16] -0.341

AFG1L (UniProt Q8WV93)
inactive: erlotinib -0.042 | [2] 0.069 | [5] 0.101 | [7] 0.257 | [8] -0.179 | IRAK-1-4 Inhibitor I -0.044 | [9] 0.043 | ralimetinib -0.033 | [10] 0.081 | [11] 0.01 | [12] -0.062 | [13] -0.03 | [14] 0.094 | [15] 0.064 | [16] -0.006

AFG3L2 (UniProt Q9Y4W6)
inactive: erlotinib 0.029 | [1] -0.005 | [2] 0.036 | [3] 0.015 | [4] -0.022 | [5] -0.023 | [6] -0.018 | [7] -0.02 | [8] 0.036 | IRAK-1-4 Inhibitor I 0.002 | ibrutinib 0.002 | [9] 0.011 | ralimetinib -0.041 | [10] -0.102 | [11] -0.026 | [12] -0.001 | [13] 0.042 | [14] -0.005 | [15] 0.015 | [16] 0

AKIRIN2 (UniProt Q53H80)
inactive: erlotinib -0.035 | [1] 0.032 | [2] -0.11 | [3] -0.043 | [5] 0.063 | [6] -0.01 | [7] 0.142 | [8] 0.005 | IRAK-1-4 Inhibitor I 0.116 | [9] -0.155 | ralimetinib 0.025 | [10] 0.112 | [11] -0.151 | [12] -0.105 | [13] -0.057 | [14] -0.074 | [15] 0.026 | [16] 0.096

ACTR5 (UniProt Q9H9F9)
inactive: erlotinib -0.055 | [1] 0.055 | [2] -0.053 | [3] -0.043 | [4] 0.047 | [5] -0.089 | [6] 0.068 | [7] -0.194 | [8] 0.031 | IRAK-1-4 Inhibitor I -0.009 | ibrutinib 0.134 | ralimetinib 0.009 | [10] -0.035 | [11] -0.053 | [12] -0.071 | [13] -0.069 | [14] -0.062 | [15] -0.057
